Earlier results as cited in patent US20040005347A1, “Composition comprising cocoa” (N. V. NUTRICIA, priority 2001, published 2004).
At least one compound was matched to its structure with a doubt left.

Tested on: women with premenstrual (PMS)
Details: group of 21 women with PMS

CC(C)C[C@H]1C(=O)N2CCC[C@H]2[C@]2(O)O[C@](NC(=O)[C@@H]3C=C4c5cccc6[nH]c(Br)c(c56)C[C@H]4N(C)C3)(C(C)C)C(=O)N12 [Bromergon, bromocriptine]
symptoms associated with over-activeness to normal prolactin levels, i.e. abdominal tension, edema, weight gain and breast tenderness: statistically significant improvement
